Source: patent US20230287070A1, “NOVEL TUMOR-SPECIFIC ANTIGENS FOR ACUTE MYELOID LEUKEMIA (AML) AND USES THEREOF” (UNIVERSITE DE MONTREAL, priority 2020, published 2023)

These sequences were tested on AML specimens vs MPCs (assay: Fold change of RNA expression between AML specimens and MPCs).
Set-up: species or system human
AGDIIARLI (listed as Homo sapiens) was tested, and the AML/MPC was 1.817.
Work on ALASHLIEA (listed as Homo sapiens) yielded an AML/MPC of 15.4.
ALDDITIQL (listed as Homo sapiens) gave an AML/MPC of 17.32.
ALDPLLLRI (listed as Homo sapiens) was tested, and the AML/MPC was 9.564.
Work on ALGNTVPAV (listed as Homo sapiens) yielded an AML/MPC of 14.05.
ALLPAVPSL (listed as Homo sapiens) showed an AML/MPC of 1261.102.
ALPVALPSL (listed as Homo sapiens) was tested, and the AML/MPC was 16.47.
APAPPPVAV (listed as Homo sapiens) gave an AML/MPC of 344.2.
APDKKITL (listed as Homo sapiens) showed an AML/MPC of 55.03.
With APGAAGQRL (listed as Homo sapiens) the AML/MPC was 24.62.
APRGTAAL (listed as Homo sapiens) gave an AML/MPC of 17.29.
For AQDIILQAV (listed as Homo sapiens), the AML/MPC was 230.14.
In the case of AQKVSVGQAA (listed as Homo sapiens), the AML/MPC is reported as 2.691.
With AQMNLLQKY (listed as Homo sapiens) the AML/MPC was 31.39.
Work on ATQNTIIGK (listed as Homo sapiens) yielded an AML/MPC of 2.542.
AVLLPKPPK (listed as Homo sapiens) gave an AML/MPC of 0.5454.
CLRIGPVTL (listed as Homo sapiens) showed an AML/MPC of 2.363.
DLLPKKLL (listed as Homo sapiens) gave an AML/MPC of 141.2948.
DLMLRESL (listed as Homo sapiens) showed an AML/MPC of 0.5437.
For DQVIRLAGL (listed as Homo sapiens), the AML/MPC was 246.7.
Work on DRELRNLEL (listed as Homo sapiens) yielded an AML/MPC of 106.7.
For DRGILRNLL (listed as Homo sapiens), the AML/MPC was 1.754.
EGKIKRNI (listed as Homo sapiens) gave an AML/MPC of 0.7945.
ERVYIRASL (listed as Homo sapiens) gave an AML/MPC of 7.705.
ETTSQVRKY (listed as Homo sapiens) gave an AML/MPC of 9.474.
For FLASFVEKTVL (listed as Homo sapiens), the AML/MPC was 0.3177.
Work on FLLEFKPVS (listed as Homo sapiens) yielded an AML/MPC of 0.178.
FNVALNARY (listed as Homo sapiens) was tested, and the AML/MPC was 113.6.
Sequence GARQQIHSW (listed as Homo sapiens) has an AML/MPC of 8.853.
For GGSLIHPQW (listed as Homo sapiens), the AML/MPC was 11.49.
For GLRLIHVSL (listed as Homo sapiens), the AML/MPC was 2.739.
For GLRLLHVSL (listed as Homo sapiens), the AML/MPC was 3.328.
Work on GLYYKLHNV (listed as Homo sapiens) yielded an AML/MPC of 13.53.
GPGSRESTL (listed as Homo sapiens) showed an AML/MPC of 19.38.
GPQVRGSI (listed as Homo sapiens) gave an AML/MPC of 0.2444.
In the case of GQKPVILTY (listed as Homo sapiens), the AML/MPC is reported as 5.212.
GSLDFQRGW (listed as Homo sapiens) gave an AML/MPC of 19.21.
For GTLQGIRAW (listed as Homo sapiens), the AML/MPC was 1098.148.
In the case of HHLVETLKF (listed as Homo sapiens), the AML/MPC is reported as 66.82.
With HLLSETPQL (listed as Homo sapiens) the AML/MPC was 13.51.
Work on HQLYRASAL (listed as Homo sapiens) yielded an AML/MPC of 9.736.
Sequence HSLISIVYL (listed as Homo sapiens) has an AML/MPC of 80.1734.
HTDDIENAKY (listed as Homo sapiens) showed an AML/MPC of 88.63.
HVSDGSTALK (listed as Homo sapiens) gave an AML/MPC of 2.419.
IAAPILHV (listed as Homo sapiens) showed an AML/MPC of 26.19.
For IAGALRSVL (listed as Homo sapiens), the AML/MPC was 221.362.
Work on IALYKQVL (listed as Homo sapiens) yielded an AML/MPC of 0.8416.
Sequence IASPIALL (listed as Homo sapiens) has an AML/MPC of 20.11.
Work on IAYSVRALR (listed as Homo sapiens) yielded an AML/MPC of 3.755.
IGNPILRVL (listed as Homo sapiens) gave an AML/MPC of 95.0262.
ILASHNLTV (listed as Homo sapiens) gave an AML/MPC of 0.8366.
For ILDLESRY (listed as Homo sapiens), the AML/MPC was 16.434.
ILFQNSALK (listed as Homo sapiens) showed an AML/MPC of 16.93.
For ILKKNISI (listed as Homo sapiens), the AML/MPC was 22.54.
ILLEEQSLI (listed as Homo sapiens) gave an AML/MPC of 4.36.
ILLSNFSSL (listed as Homo sapiens) gave an AML/MPC of 1.033.
Sequence ILRSPLKW (listed as Homo sapiens) has an AML/MPC of 56.7804.
Sequence IPHQRSSL (listed as Homo sapiens) has an AML/MPC of 61.73.
With IPLAVRTI (listed as Homo sapiens) the AML/MPC was 8.644.
Work on IPLNPFSSL (listed as Homo sapiens) yielded an AML/MPC of 2.675.
IQLTSVHLL (listed as Homo sapiens) showed an AML/MPC of 0.3646.
IRMKAQAL (listed as Homo sapiens) gave an AML/MPC of 0.1413.
ISLIVTGLK (listed as Homo sapiens) showed an AML/MPC of 9.245.
In the case of ISNKVPKLF (listed as Homo sapiens), the AML/MPC is reported as 19.42.
Work on ISSWLISSL (listed as Homo sapiens) yielded an AML/MPC of 4.706.
With ITSSAVTTALK (listed as Homo sapiens) the AML/MPC was 2.018.
For IVATGSLLK (listed as Homo sapiens), the AML/MPC was 0.5067.
IYAPHIRLS (listed as Homo sapiens) gave an AML/MPC of 230.392.
Work on IYQFIMDRF (listed as Homo sapiens) yielded an AML/MPC of 86.12.
KAFPFHIIF (listed as Homo sapiens) showed an AML/MPC of 8.766.
KATEYVHSL (listed as Homo sapiens) showed an AML/MPC of 67.34.
With KEIFLELRL (listed as Homo sapiens) the AML/MPC was 90.9946.
With KFSNVTMLF (listed as Homo sapiens) the AML/MPC was 8.927.
Sequence KGHGGPRSW (listed as Homo sapiens) has an AML/MPC of 0.3527.
Sequence KIKNKTKNK (listed as Homo sapiens) has an AML/MPC of 0.8468.
KIKVFSKVY (listed as Homo sapiens) showed an AML/MPC of 0.5638.
KILDVNLRI (listed as Homo sapiens) gave an AML/MPC of 8.266.
In the case of KLLEKAFSI (listed as Homo sapiens), the AML/MPC is reported as 20.38.
Work on KLLSLTIYK (listed as Homo sapiens) yielded an AML/MPC of 0.3604.
Sequence KLNQAFLVL (listed as Homo sapiens) has an AML/MPC of 1.82.
For KLQDKEIGL (listed as Homo sapiens), the AML/MPC was 343.936.
With KPMPTKVVF (listed as Homo sapiens) the AML/MPC was 20.75.
KTFVQQKTL (listed as Homo sapiens) was tested, and the AML/MPC was 261.178.
“LELISFLPVL (listed as Homo sapiens) [LELlSFLPVL]” was tested, and the AML/MPC was 0.08993.
LGGAWKAVF (listed as Homo sapiens) was tested, and the AML/MPC was 1.398.
With LGISLTLKY (listed as Homo sapiens) the AML/MPC was 6.313.
Sequence LHNEKGLSL (listed as Homo sapiens) has an AML/MPC of 1.219.
LLDNILQSI (listed as Homo sapiens) showed an AML/MPC of 2.345.
LLLPESPSI (listed as Homo sapiens) showed an AML/MPC of 0.1781.
With LLSRGLLFRI (listed as Homo sapiens) the AML/MPC was 0.3377.
